These results are taken from publication PMC7862700.

By UniProt entry, the sequences of proteins in these tests, tags left out. Where a name states a change or a piece, a line headed by the entry shows the natural chain unless it says otherwise.
UniProt P32519: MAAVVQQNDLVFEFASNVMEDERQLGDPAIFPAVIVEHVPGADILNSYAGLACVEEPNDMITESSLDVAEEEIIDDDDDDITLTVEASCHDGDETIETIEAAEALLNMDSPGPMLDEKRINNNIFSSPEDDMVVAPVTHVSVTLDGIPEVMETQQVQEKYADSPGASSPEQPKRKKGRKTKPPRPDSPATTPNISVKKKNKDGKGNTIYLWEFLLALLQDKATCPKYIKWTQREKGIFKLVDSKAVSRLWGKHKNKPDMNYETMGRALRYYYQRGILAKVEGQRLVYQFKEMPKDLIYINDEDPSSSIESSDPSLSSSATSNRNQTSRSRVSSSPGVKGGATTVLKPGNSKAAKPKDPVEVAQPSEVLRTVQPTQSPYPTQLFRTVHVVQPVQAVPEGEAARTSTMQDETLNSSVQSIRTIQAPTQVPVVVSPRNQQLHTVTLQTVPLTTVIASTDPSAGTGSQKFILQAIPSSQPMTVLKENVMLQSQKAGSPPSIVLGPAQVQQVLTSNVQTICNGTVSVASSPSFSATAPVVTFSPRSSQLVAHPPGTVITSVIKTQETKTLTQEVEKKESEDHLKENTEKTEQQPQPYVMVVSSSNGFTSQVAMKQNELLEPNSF

Only a part is listed here, and it is no random draw. For some of these results: At the low end of the ranking the order means little. This is one part of the list. For some of these results: The source does not settle which construct or isoform was used.

Common to all, as to experiment: DAPPL (digital affinity profiling via proximity ligation, sequencing)
Common to all, as to details: 10 mM Tris-HCl pH 7.5, 50 mM NaCl, 1 mM DTT, 4% glycerol, room temperature, 30 min; GST-TFs on glutathione beads, 16-mer random dsDNA library, 0.1% …; high values mean tight binding; double strand, one strand shown; scale: fold enrichment (6-mer frequency, TF over GST control)

One test has as its target ELF1 (UniProt P32519).
In another test the target is T1, ELK4 (UniProt P28324-2).
T1 sequence: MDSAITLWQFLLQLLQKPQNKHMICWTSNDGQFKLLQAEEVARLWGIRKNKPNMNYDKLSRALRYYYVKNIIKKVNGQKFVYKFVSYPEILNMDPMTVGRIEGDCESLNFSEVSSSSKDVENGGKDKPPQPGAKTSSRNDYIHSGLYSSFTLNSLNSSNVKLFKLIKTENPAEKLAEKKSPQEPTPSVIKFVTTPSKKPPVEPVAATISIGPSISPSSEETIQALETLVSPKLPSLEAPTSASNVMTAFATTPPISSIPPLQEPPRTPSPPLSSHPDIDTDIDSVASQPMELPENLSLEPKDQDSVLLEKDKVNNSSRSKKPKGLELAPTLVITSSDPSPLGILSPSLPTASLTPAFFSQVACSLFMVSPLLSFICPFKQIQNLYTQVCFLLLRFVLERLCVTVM

The next test concerns the target T2, ETV4 (UniProt P43268).
T2 sequence: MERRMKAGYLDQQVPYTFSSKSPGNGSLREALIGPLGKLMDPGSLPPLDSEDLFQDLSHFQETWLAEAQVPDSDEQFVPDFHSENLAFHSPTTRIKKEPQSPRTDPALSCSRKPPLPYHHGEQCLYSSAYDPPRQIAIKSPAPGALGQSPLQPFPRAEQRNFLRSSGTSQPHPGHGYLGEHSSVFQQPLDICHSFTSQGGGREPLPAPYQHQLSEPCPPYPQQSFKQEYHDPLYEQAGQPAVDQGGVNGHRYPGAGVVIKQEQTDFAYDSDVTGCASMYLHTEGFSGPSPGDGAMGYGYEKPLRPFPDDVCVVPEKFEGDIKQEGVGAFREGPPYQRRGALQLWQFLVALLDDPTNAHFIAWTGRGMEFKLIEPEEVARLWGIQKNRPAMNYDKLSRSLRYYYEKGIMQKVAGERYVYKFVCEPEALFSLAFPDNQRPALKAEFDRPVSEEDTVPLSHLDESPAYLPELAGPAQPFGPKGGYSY

The target of another test is T3, ERF (UniProt P50548).
T3 sequence: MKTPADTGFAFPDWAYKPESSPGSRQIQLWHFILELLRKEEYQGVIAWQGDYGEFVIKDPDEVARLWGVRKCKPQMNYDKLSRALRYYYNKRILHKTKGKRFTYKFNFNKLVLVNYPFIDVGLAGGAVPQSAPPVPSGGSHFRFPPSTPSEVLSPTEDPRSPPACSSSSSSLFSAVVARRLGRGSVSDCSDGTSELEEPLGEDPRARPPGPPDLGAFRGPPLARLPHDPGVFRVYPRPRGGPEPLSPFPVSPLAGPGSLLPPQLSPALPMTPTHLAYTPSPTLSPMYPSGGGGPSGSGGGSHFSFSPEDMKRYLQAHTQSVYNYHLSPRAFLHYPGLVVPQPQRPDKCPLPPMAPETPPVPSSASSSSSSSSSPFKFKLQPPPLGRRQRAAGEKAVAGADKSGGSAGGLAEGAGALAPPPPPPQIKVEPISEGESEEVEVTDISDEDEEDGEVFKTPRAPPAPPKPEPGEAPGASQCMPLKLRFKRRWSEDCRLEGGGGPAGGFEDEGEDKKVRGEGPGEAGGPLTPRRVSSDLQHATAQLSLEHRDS

CAGCAT: the binding signal in the test with ELF1 was found to be 0.985; with ELK4 it was 0.993; with ETV4, 1.03; with ERF, 0.911.
As for CAAACT, the binding signal with ELF1 was found to be 1.17; with ELK4 it was 1.15; with ETV4 it was 1.14; with ERF, 1.23.
For AACCAC, the binding signal stood at 1.25 with ELF1, 1.26 with ELK4 and 1.17 with ETV4.
The corresponding values for CAACCT are 1.2, 1.15 and 1.26.
As for CGTATC, the binding signal with ELF1 is 1.23; in the test with ELK4, 1.16; with ETV4, 1.17; with ERF, 1.15.
For ACCCGG, the figures for the binding signal with ELF1, in the test with ELK4 and in the test with ETV4 were 1.75, 1.52 and 1.54, respectively.
For CGCCGG, the binding signal in the test with ELF1 was 1.03; with ELK4, 0.99; in the test with ETV4, 1.06; in the test with ERF, 0.99.
For AGGATG, the binding signal worked out at 0.919 with ELF1, 0.922 in the test with ELK4, 1.01 with ETV4 and 0.993 in the test with ERF.
With GCTTTT, the binding signal was 1.09 in the test with ELF1, 1.17 with ELK4 and 1.1 with ETV4.
As for ACTATC, the binding signal with ELF1 was found to be 1.12; in the test with ELK4, 1.2; with ETV4 it was 1.13.
Regarding TGGATC, the binding signal with ELF1 worked out at 0.966; in the test with ELK4 it was 0.904; with ETV4, 1.07; in the test with ERF, 0.935.
In the case of CAACAC, the binding signal with ELF1 was 1.13; in the test with ELK4, 1.2; with ETV4, 1.11.
AACGGA: the binding signal turned out to be 0.984 with ELF1, 0.95 with ELK4, 1.06 with ETV4 and 0.995 with ERF.
With AAATCG, the binding signal with ELF1 stood at 0.975; in the test with ELK4, 0.974; in the test with ETV4, 1.06; with ERF, 0.96.
As to CATTTG, the binding signal amounted to 1.24 with ELF1, 1.26 with ELK4 and 1.31 with ETV4.
On to TAATCC, for which the binding signal amounted to 1.15 with ELF1, 1.23 with ELK4 and 1.22 in the test with ETV4.
For AGGAAC, the binding signal in the test with ELF1 amounted to 0.977; with ELK4 it was 0.907; with ETV4, 0.988; with ERF it was 0.959.
The corresponding values for AGATGA are 1.14, 0.994, 1.21 and 1.18.
Turning to TCCCGG, the binding signal in the test with ELF1 turned out to be 2.12; with ELK4, 1.91; with ETV4, 2.05.
The corresponding values for ATCGCA are 1.08, 1.06 and 1.
As for GCGTAT, the binding signal turned out to be 0.97 in the test with ELF1, 0.987 with ELK4, 1.02 in the test with ETV4 and 0.922 in the test with ERF.
Consider CATGTT, for which the binding signal in the test with ELF1 was found to be 1.06; in the test with ELK4 it was 1.1; with ETV4 it was 1.06.
Regarding ACGTCA, the binding signal with ELF1 came out at 0.884; with ELK4, 0.946; in the test with ETV4, 0.96; with ERF it was 0.88.
Regarding ACACTA, the values for the binding signal with ELF1, with ELK4 and in the test with ETV4 were 1.19, 1.16 and 1.13, respectively.
With CACACC, the binding signal with ELF1 was 1.02; with ELK4, 0.974; with ETV4, 1.04.
As to GCCGGA, the binding signal was determined as 0.952 with ELF1, 0.939 in the test with ELK4, 1.08 with ETV4 and 0.905 with ERF.
The corresponding values for ACAGCC are 1.11, 1.04, 1.02 and 1.18.
Regarding ATACGA, the binding signal with ELF1 came out at 1.14; in the test with ELK4 it was 1.08; in the test with ETV4, 1.17.
For AAGAAG, the binding signal was 1.05 with ELF1, 1.18 with ELK4, 1.1 with ETV4 and 1.01 in the test with ERF.
The corresponding values for GATACA are 0.996, 0.985, 1.01 and 0.931.
Regarding GCACTC, the binding signal was found to be 1.33 with ELF1, 1.33 with ELK4 and 1.34 with ETV4.
With GTCGAC, the values for the binding signal in the test with ELF1, with ELK4 and with ETV4 were 0.962, 0.942 and 0.973, respectively.
The corresponding values for TCCGTT are 1.34, 1.48 and 1.54.
In the case of TTATTA, the binding signal in the test with ELF1 was 1.1; with ELK4, 1.03; in the test with ETV4 it was 1.12; with ERF, 0.948.
The corresponding values for GTCCTT are 1.26, 1.15, 1.25 and 1.14.
The corresponding values for ACACTC are 1.12, 1.19, 1.14 and 1.06.
Take CCTTAG: the binding signal with ELF1 was found to be 1.27; with ELK4, 1.34; in the test with ETV4 it was 1.21.
GGATTT showed a binding signal with ETV4 of 1.26.
Same read-out and setting: next, ACAATG: 1.14.
Turning to AAACGA, the values for the binding signal with ELF1, with ELK4 and in the test with ETV4 were 1.08, 0.941 and 1.03, respectively.
Turning to ACGACT, the binding signal in the test with ELF1 was 1.19; in the test with ELK4 it was 1.39; in the test with ETV4, 1.26.
For CCTTGA, in the test with ETV4, the binding signal was 1.13.
Same read-out and setting: next, AGCTTA: 1.21.
The same measure, in the same setting: next, TGCTAG: 1.18.
TTAGGC: the results for the binding signal with ELF1, with ELK4 and with ETV4 were 0.993, 0.963 and 0.978, respectively.
The corresponding values for GTACAC are 1.17, 1.23 and 1.2.
Regarding TGCCTT, in the test with ETV4, the binding signal was determined as 1.4.
With TCAACA, in the test with ETV4, the binding signal is 1.09.
Turning to CCGGGT, in the test with ETV4, the binding signal is 1.05.
In the case of TATTGA, the binding signal with ELF1 is 1.18; in the test with ELK4 it was 1.17; in the test with ETV4, 1.1.
For the sequence CCACCC, the binding signal with ETV4 was 1.24.
Still for that read-out and setting: for ACCCCA the value was 1.13.
As for CTTCGT, the binding signal in the test with ELF1 was 1.3; with ELK4, 1.39; in the test with ETV4 it was 1.4.
The sequence TGTACC displayed a binding signal with ETV4 of 1.47.
On to ATAAGG, for which the binding signal with ELF1 amounted to 0.942; with ELK4, 0.923; in the test with ETV4, 1.03.
The corresponding values for CCTTTT are 1.52, 1.58 and 1.6.
The sequence TCTATA showed a binding signal in the test with ETV4 of 1.16.
The same measure, in the same setting: for CCCTAT the value was 1.34.
Consider TATGAT, for which the binding signal came to 1.24 in the test with ELF1, 1.25 with ELK4 and 1.25 in the test with ETV4.
In turn, ATATCC gave a binding signal with ETV4 of 2.83.
Turning to TCCTTA, the figures for the binding signal in the test with ELF1, in the test with ELK4 and in the test with ETV4 were 1.66, 1.41 and 1.42, respectively.
The corresponding values for GTACCT are 1.22, 1.25 and 1.24.
The corresponding values for AACTTG are 1.21, 1.11 and 1.12.
As to GTTCTC, in the test with ETV4, the binding signal came to 1.31.
Same read-out and setting: for GTATCC the value was 1.8.
Sequence CTTTCG had a binding signal with ETV4 of 1.22.
GAACAA: the binding signal with ELF1 came to 1.22; with ELK4 it was 1.16; with ETV4, 1.17.
In the test with ETV4, ACTCTG returned a binding signal of 1.44.
Turning to ATCGTT, the results for the binding signal with ELF1, with ELK4 and in the test with ETV4 were 0.971, 1.12 and 1.12, respectively.
As for CCTCCG, the binding signal in the test with ETV4 is 1.5.
Same read-out and setting: for AACCGG the value was 1.45; for TATACA, 1.38.
With AATTCT, the binding signal with ELF1 came to 1.32; with ELK4, 1.29; with ETV4, 1.27.
Consider CGAAAT, for which, in the test with ETV4, the binding signal is 1.02.
Consider CTTGTA, for which the binding signal with ETV4 is 1.4.
TGTACG came in with a binding signal with ETV4 of 1.21.
Same read-out and setting: next, TACACT: 1.54.
Sequence GATATG gave a binding signal with ETV4 of 1.13.
On to CTCTCC, for which the binding signal in the test with ETV4 turned out to be 1.42.
CTTAGC had a binding signal in the test with ETV4 of 1.26.
Turning to ACAACA, the binding signal with ETV4 is 1.21.
In the test with ETV4, ACGTCT gave a binding signal of 1.19.
Same read-out and setting: for TACAAC the value was 1.18; for ATGCAG, 1.04; for TGATGA, 1.28.
Still for that read-out and setting: for CACGAC the value was 1.28; for TCTTTC, 1.34.
Still for that read-out and setting: next, AAGCTA: 1.2; AACCTG: 1.28; AACCCG: 1.37.
Sequence TCGCTG came in with a binding signal with ETV4 of 1.04.
ATCCCA: in the test with ETV4, the binding signal came to 1.06.
On the same count and under the same terms, for ATTCTC the value was 1.29.
On the same count and under the same terms, for GCTGTT the value was 1.05.
TGGTCC had a binding signal with ETV4 of 1.25.
Same read-out and setting: next, GAATTA: 1.06; CTTCTC: 1.44.
In turn, AGTGCT showed a binding signal in the test with ETV4 of 1.5.
On the same count and under the same terms, next, TCGCCG: 1.13; TCCAAA: 1.14.
Regarding TGGAAT, in the test with ETV4, the binding signal is 1.27.
GTAGCT had a binding signal with ETV4 of 1.13.
TCCGCT: in the test with ETV4, the binding signal was 2.37.
In the test with ETV4, CTCCAG came in with a binding signal of 1.15.
In turn, CGTCCT had a binding signal with ETV4 of 1.37.
The same measure, in the same setting: for ATTGTC the value was 1.17; for CGGAAG, 3.2.
Still for that read-out and setting: for CACCAA the value was 1.01; for TCCTCG, 1.4.
